Laboratory results as given in publication PMC11606324.
Results are given in words; binding and its absence hold for the method and conditions named. Binding can be weak; no strength is given. Tags and fused reporters may be left off the sequences shown. For some assays here: Binding seen in cells or lysates may run through a third protein.

Sequences of proteins named here, by UniProt entry; tags and fusion partners are left off. A change or cut given only in a name is not applied to a line headed by its entry.
UniProt Q9M8T0: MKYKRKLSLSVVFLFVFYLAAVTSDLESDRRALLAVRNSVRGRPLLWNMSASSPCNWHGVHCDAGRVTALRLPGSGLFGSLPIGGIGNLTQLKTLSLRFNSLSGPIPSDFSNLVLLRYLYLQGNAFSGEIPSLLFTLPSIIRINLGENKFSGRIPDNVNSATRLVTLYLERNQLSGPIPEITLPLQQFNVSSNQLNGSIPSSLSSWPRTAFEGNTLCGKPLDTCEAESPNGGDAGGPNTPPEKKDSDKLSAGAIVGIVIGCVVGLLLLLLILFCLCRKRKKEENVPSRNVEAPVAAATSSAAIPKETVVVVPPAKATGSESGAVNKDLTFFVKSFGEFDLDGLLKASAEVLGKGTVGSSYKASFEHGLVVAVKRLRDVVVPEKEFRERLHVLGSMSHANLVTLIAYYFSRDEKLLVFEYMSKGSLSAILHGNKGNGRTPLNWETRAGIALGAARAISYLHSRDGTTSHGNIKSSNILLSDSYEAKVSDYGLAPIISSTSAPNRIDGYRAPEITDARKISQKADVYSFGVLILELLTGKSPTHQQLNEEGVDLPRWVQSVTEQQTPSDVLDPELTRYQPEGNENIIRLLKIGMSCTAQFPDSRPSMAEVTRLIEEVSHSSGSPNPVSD
UniProt Q9FMD7: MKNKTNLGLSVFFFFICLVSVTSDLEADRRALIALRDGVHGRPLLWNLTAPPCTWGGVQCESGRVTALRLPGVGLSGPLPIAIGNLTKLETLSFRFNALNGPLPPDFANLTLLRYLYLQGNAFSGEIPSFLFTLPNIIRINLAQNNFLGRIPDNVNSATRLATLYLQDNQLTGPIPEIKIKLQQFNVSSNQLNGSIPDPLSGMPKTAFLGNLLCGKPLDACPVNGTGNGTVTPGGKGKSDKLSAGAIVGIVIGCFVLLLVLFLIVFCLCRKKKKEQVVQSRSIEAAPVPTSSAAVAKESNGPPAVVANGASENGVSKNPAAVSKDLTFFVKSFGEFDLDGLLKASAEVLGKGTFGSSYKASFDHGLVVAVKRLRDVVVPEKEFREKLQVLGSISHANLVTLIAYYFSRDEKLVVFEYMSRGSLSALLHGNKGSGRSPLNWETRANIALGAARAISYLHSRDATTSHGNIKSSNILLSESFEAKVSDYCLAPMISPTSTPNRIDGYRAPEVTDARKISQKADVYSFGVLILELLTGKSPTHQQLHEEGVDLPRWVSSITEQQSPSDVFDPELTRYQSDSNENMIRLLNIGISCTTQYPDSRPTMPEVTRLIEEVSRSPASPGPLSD

B1: PYL6-YFP^N (coding region of PYL6 in pSPYNE173) (receptor, UniProt Q8S8E3 1-215)
chain: MPTSIQFQRSSTAAEAANATVRNYPHHHQKQVQKVSLTRGMADVPEHVELSHTHVVGPSQCFSVVVQDVEAPVSTVWSILSRFEHPQAYKHFVKSCHVVIGDGREVGSVREVRVVSGLPAAFSLERLEIMDDDRHVISFSVVGGDHRLMNYKSVTTVHESEEDSDGKKRTRVVESYVVDVPAGNDKEETCSFADTIVRCNLQSLAKLAENTSKFS
B2: PYL6-His recombinant protein (coding region of PYL6 in pET28a) (receptor, UniProt Q8S8E3 1-215)
chain: B1 chain

Experiments:
[1] = biological target: KIN7-YFP^C (coding region of KIN7 in pSPYCE(M)) (Arabidopsis thaliana) (UniProt Q9M8T0); assay: split reporter; BiFC in Nicotiana benthamiana leaves infiltrated with Agrobacterium GV3101; YFP^N (pSPYNE173) and YFP^C (pSPYCE(M)) fusions; confocal microscopy
[2] = biological target: LRR1-YFP^C (coding region of LRR1 in pSPYCE(M)) (Arabidopsis thaliana) (UniProt Q9FMD7); assay: as above
[3] = biological target: KIN7-YFP^C (coding region of KIN7 in pSPYCE(M)) (Arabidopsis thaliana) (UniProt Q9M8T0); assay: split reporter; BiFC in transformed Arabidopsis protoplasts; YNE and YCE fusions; confocal microscopy, 60x objective
[4] = biological target: LRR1-YFP^C (coding region of LRR1 in pSPYCE(M)) (Arabidopsis thaliana) (UniProt Q9FMD7); assay: as above
[5] = biological target: LRR1-GST recombinant protein (coding region of LRR1 in pGEX-4T-1) (Arabidopsis thaliana) (UniProt Q9FMD7); assay: pull-down; Glutathione beads with LRR1-GST incubated with His-tagged proteins in 1x PBS at 4 °C for 2 h; washed five times with 1x PBS, 0.1% Triton X-100; immunoblot with anti-GST or anti-His; both purified

| Binder | binding [1] | binding [2] | binding [3] | binding [4] | binding [5] |
| --- | --- | --- | --- | --- | --- |
| B1 | binds | binds | binds | binds | – |
| B2 | – | – | – | – | binds |
